PubChem BioAssay AID1224830 – NIAID – 2016

- Aim: 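Genes whose knock-down alters the TNF-alpha reporter response to LPS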 (primary screen)
- Cell system: human THP-1 monocytic leukaemia cells, TNF dual-luciferase reporter clone, PMA-differentiated to macrophage-like cells
- Reagents: siRNA pool against human genes, 50 nM
- Duration: LPS for 4 h, given about 3 days after siRNA transfection
- Treatment: bacterial LPS (TLR4 ligand), 10 ng/ml
- Measurement: 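TNF firefly reporter luminescence divided by renilla, normalised to the plate median, then turned into a robust z-score for each replicate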
- Reading the numbers: TNF reporter robust z-score: higher = stronger TNF reporter response to LPS
- Call rule: 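a well is active when its z-score exceeds 2.8 or falls below -1.5; control wells carry no call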
Here is one part, drawn at random, of about 18,000 reagents. About 2,900 of all reagents (16%) count as active. 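Calls are made per well; low scores hint the gene aids the LPS response, high scores that it dampens it.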 A number with no mark means an inactive call. Repeated entries: four replicate wells of each siRNA pool.

| gene symbol | TNF reporter robust z-score |
| --- | --- |
| AKR1B1 (aldo-keto reductase family 1 member B) | 6.48 (active) |
| AKR1B1 (aldo-keto reductase family 1 member B) | -0.16 |
| AKR1B1 (aldo-keto reductase family 1 member B) | 0.29 |
| AKR1B1 (aldo-keto reductase family 1 member B) | 1.31 |
| TCF25 (TCF25 ribosome quality control complex subunit) | 0.33 |
| TCF25 (TCF25 ribosome quality control complex subunit) | -0.11 |
| TCF25 (TCF25 ribosome quality control complex subunit) | 1.13 |
| TCF25 (TCF25 ribosome quality control complex subunit) | 0.93 |
| KIAA0753 | 0.46 |
| KIAA0753 | 0.55 |
| KIAA0753 | 0.04 |
| KIAA0753 | -0.51 |
| FEM1A (fem-1 homolog A) | -0.91 |
| FEM1A (fem-1 homolog A) | -0.77 |
| FEM1A (fem-1 homolog A) | -0.76 |
| FEM1A (fem-1 homolog A) | -0.44 |
| ITGAL (integrin subunit alpha L) | 0.75 |
| ITGAL (integrin subunit alpha L) | -0.38 |
| ITGAL (integrin subunit alpha L) | -0.25 |
| ITGAL (integrin subunit alpha L) | 1.36 |
| DNAJC25 (DnaJ heat shock protein family (Hsp40) member C25) | -0.95 |
| DNAJC25 (DnaJ heat shock protein family (Hsp40) member C25) | -1.2 |
| DNAJC25 (DnaJ heat shock protein family (Hsp40) member C25) | -1.24 |
| DNAJC25 (DnaJ heat shock protein family (Hsp40) member C25) | -0.99 |
| HNRNPAB (heterogeneous nuclear ribonucleoprotein A/B) | -1.29 |
| HNRNPAB (heterogeneous nuclear ribonucleoprotein A/B) | 0.44 |
| HNRNPAB (heterogeneous nuclear ribonucleoprotein A/B) | 0.34 |
| HNRNPAB (heterogeneous nuclear ribonucleoprotein A/B) | 0.41 |
| NUP54 (nucleoporin 54) | -1.28 |
| NUP54 (nucleoporin 54) | -0.98 |
| NUP54 (nucleoporin 54) | -0.63 |
| NUP54 (nucleoporin 54) | 0.57 |
| FGF7 (fibroblast growth factor 7) | -1.17 |
| FGF7 (fibroblast growth factor 7) | -1.14 |
| FGF7 (fibroblast growth factor 7) | -1.15 |
| FGF7 (fibroblast growth factor 7) | -0.87 |
| CCL22 (C-C motif chemokine ligand 22) | 0.44 |
| CCL22 (C-C motif chemokine ligand 22) | -0.33 |
| CCL22 (C-C motif chemokine ligand 22) | -0.73 |
| CCL22 (C-C motif chemokine ligand 22) | -0.14 |
| MAP1LC3C (microtubule associated protein 1 light chain 3 gamma) | -0.02 |
| MAP1LC3C (microtubule associated protein 1 light chain 3 gamma) | 0.45 |
| MAP1LC3C (microtubule associated protein 1 light chain 3 gamma) | -0.33 |
| MAP1LC3C (microtubule associated protein 1 light chain 3 gamma) | 1.25 |
| MYO3A (myosin IIIA) | -1.12 |
| MYO3A (myosin IIIA) | 0.24 |
| MYO3A (myosin IIIA) | 0.89 |
| MYO3A (myosin IIIA) | -0.29 |
| ETS2-AS1 (ETS2 antisense RNA 1) | -0.47 |
| ETS2-AS1 (ETS2 antisense RNA 1) | -0.9 |
| ETS2-AS1 (ETS2 antisense RNA 1) | -1.07 |
| REEP3 (receptor accessory protein 3) | -0.37 |
| REEP3 (receptor accessory protein 3) | -0.14 |
| REEP3 (receptor accessory protein 3) | -1.11 |
| REEP3 (receptor accessory protein 3) | 0.95 |
| CFAP184 (cilia and flagella associated protein 184) | -0.39 |
| CFAP184 (cilia and flagella associated protein 184) | 0 |
| CFAP184 (cilia and flagella associated protein 184) | 0.05 |
| CFAP184 (cilia and flagella associated protein 184) | -0.34 |
| SLC16A2 | -1.11 |
| SLC16A2 | -0.17 |
| SLC16A2 | -0.63 |
| SLC16A2 | -0.47 |
| OR9G4 (olfactory receptor family 9 subfamily G member 4) | 4.64 (active) |
| OR9G4 (olfactory receptor family 9 subfamily G member 4) | 1.32 |
| OR9G4 (olfactory receptor family 9 subfamily G member 4) | 0.59 |
| OR9G4 (olfactory receptor family 9 subfamily G member 4) | 0.25 |
| RNF220 (ring finger protein 220) | -0.99 |
| RNF220 (ring finger protein 220) | -1.1 |
| RNF220 (ring finger protein 220) | -2.41 (active) |
| RNF220 (ring finger protein 220) | 1.15 |
| ABCG8 (ATP binding cassette subfamily G member 8) | 0.16 |
| ABCG8 (ATP binding cassette subfamily G member 8) | 0.23 |
| ABCG8 (ATP binding cassette subfamily G member 8) | 0.01 |
| ABCG8 (ATP binding cassette subfamily G member 8) | -0.36 |
| F2RL1 (F2R like trypsin receptor 1) | 0.49 |
| F2RL1 (F2R like trypsin receptor 1) | 0.77 |
| F2RL1 (F2R like trypsin receptor 1) | 0.72 |
| F2RL1 (F2R like trypsin receptor 1) | 1.62 |
| WFDC13 (WAP four-disulfide core domain 13) | -0.15 |
| WFDC13 (WAP four-disulfide core domain 13) | -0.22 |
| WFDC13 (WAP four-disulfide core domain 13) | 0.79 |
| WFDC13 (WAP four-disulfide core domain 13) | -0.02 |
| MRM3 (mitochondrial rRNA methyltransferase 3) | -1.96 (active) |
| MRM3 (mitochondrial rRNA methyltransferase 3) | -1.4 |
| MRM3 (mitochondrial rRNA methyltransferase 3) | -1.8 (active) |
| MRM3 (mitochondrial rRNA methyltransferase 3) | -1.41 |

Next part; the last 2 above are carried over.
| gene symbol | TNF reporter robust z-score |
| --- | --- |
| MRM3 (mitochondrial rRNA methyltransferase 3) | -1.8 (active) |
| MRM3 (mitochondrial rRNA methyltransferase 3) | -1.41 |
| EVC (EvC ciliary complex subunit 1) | -0.38 |
| EVC (EvC ciliary complex subunit 1) | -0.27 |
| EVC (EvC ciliary complex subunit 1) | -0.51 |
| EVC (EvC ciliary complex subunit 1) | 0.86 |
| NAA80 (N-alpha-acetyltransferase 80, NatH catalytic subunit) | -0.17 |
| NAA80 (N-alpha-acetyltransferase 80, NatH catalytic subunit) | -1.14 |
| NAA80 (N-alpha-acetyltransferase 80, NatH catalytic subunit) | -1.24 |
| NAA80 (N-alpha-acetyltransferase 80, NatH catalytic subunit) | -0.13 |
| MFN1 (mitofusin 1) | -0.1 |
| MFN1 (mitofusin 1) | -0.32 |
| MFN1 (mitofusin 1) | -0.56 |
| MFN1 (mitofusin 1) | 1.1 |
| PSMA5 (proteasome 20S subunit alpha 5) | -1.64 (active) |
| PSMA5 (proteasome 20S subunit alpha 5) | -0.82 |
| PSMA5 (proteasome 20S subunit alpha 5) | -1.39 |
| PSMA5 (proteasome 20S subunit alpha 5) | -1.05 |
| HLA-DMA (major histocompatibility complex, class II, DM alpha) | -0.59 |
| HLA-DMA (major histocompatibility complex, class II, DM alpha) | -0.31 |
| HLA-DMA (major histocompatibility complex, class II, DM alpha) | -0.75 |
| HLA-DMA (major histocompatibility complex, class II, DM alpha) | -0.51 |
| HOXC8 (homeobox C8) | 1 |
| HOXC8 (homeobox C8) | 0.3 |
| HOXC8 (homeobox C8) | 0.88 |
| HOXC8 (homeobox C8) | 0.16 |
| ACSM5 (acyl-CoA synthetase medium chain family member 5) | 1.13 |
| ACSM5 (acyl-CoA synthetase medium chain family member 5) | -0.99 |
| ACSM5 (acyl-CoA synthetase medium chain family member 5) | -0.25 |
| ACSM5 (acyl-CoA synthetase medium chain family member 5) | -0.17 |
| KRT5 (keratin 5) | -0.41 |
| KRT5 (keratin 5) | -0.17 |
| KRT5 (keratin 5) | -0.28 |
| KRT5 (keratin 5) | -0.72 |
| GTPBP6 (GTP binding protein 6) | -0.54 |
| GTPBP6 (GTP binding protein 6) | -0.23 |
| GTPBP6 (GTP binding protein 6) | -0.78 |
| GTPBP6 (GTP binding protein 6) | -1.26 |
| CRYGB (crystallin gamma B) | 1.82 |
| CRYGB (crystallin gamma B) | 0.54 |
| CRYGB (crystallin gamma B) | 1.59 |
| CRYGB (crystallin gamma B) | 1.37 |
| DEFB116 (defensin beta 116) | -1.13 |
| DEFB116 (defensin beta 116) | -0.86 |
| DEFB116 (defensin beta 116) | -1.69 (active) |
| DEFB116 (defensin beta 116) | -0.16 |
| DMRTC1 (DMRT like family C1) | -1.58 (active) |
| DMRTC1 (DMRT like family C1) | -1.51 (active) |
| DMRTC1 (DMRT like family C1) | -1.93 (active) |
| DMRTC1 (DMRT like family C1) | -1.31 |
| TADA1 (transcriptional adaptor 1) | -0.76 |
| TADA1 (transcriptional adaptor 1) | -0.16 |
| TADA1 (transcriptional adaptor 1) | -0.25 |
| TADA1 (transcriptional adaptor 1) | 0.53 |
| RAI2 (retinoic acid induced 2) | 0.19 |
| RAI2 (retinoic acid induced 2) | 1.8 |
| RAI2 (retinoic acid induced 2) | 2.62 |
| RAI2 (retinoic acid induced 2) | 2.38 |
